Values quoted from earlier work in EP0687181B1, “USE OF THYMOSIN FOR TREATING HEPATITIS C IN NON-RESPONDERS TO INTERFERON TREATMENT” (ALPHA 1 BIOMEDICALS, INC., priority 1993, dated 2001).
Not every detail of the peptide structures is certain; ends, links or a residue may be inferred. Where no end group is shown, it is not given here.

Test system: influenza vaccine
Settings: s.c. twice weekly from vaccination; six weeks post-vaccine; versus controls; cited from earlier work

For “Ac-SDAAVDTSSEITTKDLKEKKEVVEEAEN [Thymosin α-1]”, the antibody to influenza is given as “higher levels”.
